Reference: US4837371A, “Process for concentration of an aqueous solution of amino acid” (Mitsui Toatsu Chemicals, Inc., priority 1986, dated 1989)

Tests used:
[1] = reverse osmosis, exclusion ratio with HR98 membrane (Example 1); settings: HR98, 15 wt% isopropyl alcohol, 1 wt% L-tryptophan, pH 3.0, 40° C., 40 kg/cm^2
[2] = reverse osmosis, exclusion ratio with NF40HF membrane (Example 1); settings: 15 wt% isopropyl alcohol, 1 wt% L-tryptophan, pH 3.0, 40° C., 40 kg/cm^2
[3] = reverse osmosis, exclusion ratio with NF70 membrane (Example 3); settings: NF70, 15 wt% isopropyl alcohol, 1 wt% L-tryptophan, pH 9.5, 40° C., 15 kg/cm^2
[4] = exclusion ratio for solute in a wholly circulating method, varying the pH (Example 5); settings: 40° C., 40 kg/cm^2

| SMILES | exclusion ratio [1] | exclusion ratio [2] | exclusion ratio [3] | exclusion ratio ([4]; pH 1.8, 15 wt% tert-butyl alcohol) | exclusion ratio ([4]; pH 5.9, 15 wt% tert-butyl alcohol) |
| --- | --- | --- | --- | --- | --- |
| N[C@@H](Cc1c[nH]c2ccccc12)C(=O)O [L-tryptophan] | 98.5% | 89.7% | 90.6% | 85.0% | 69.5% |
| CC(C)O [isopropyl alcohol] | 79.0% | 19.6% | 16.0% |  |  |
